# Source: PubChem BioAssay AID1347423 (Functional Genomics Laboratory (NCATS/FGL), 2020)
# Screen size: about 52,000 sequences; about 210 (0.4%) were called active.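 How the source made its calls: active means gene whose silencing raises cell survival under the drug, median off-target-corrected z-score across its silencing RNAs 2 or more; inactive means the rest.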 Some of the results follow.
# Assay: Resistance to Poly (ADP-Ribose) Polymerase inhibitor: Gene Identification via Genome-wide siRNA Screen
# Conditions: mouse BRCA2 R2336H ES cells, olaparib, CellTiter-Glo viability; active compounds read high
# How it was run: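 Genome-wide siRNA screen (3 siRNAs/gene, 20 nM) in mouse ES cells carrying hypomorphic BRCA2 R2336H; olaparib 500 nM added 48 h post-transfection, CellTiter-Glo viability 72 h later. Normalized to plate-median negative control; MAD z-scores, gene median, seed-adjusted.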
row,Sequence,z-score
1,GCUAAAAGGUAAGUACUUCTT against AB041803,inactive: 0.00857
2,GCUAAUUGCUCCGUACUCCTT against A930010I02,inactive: 1.93
3,CGCUCAUUUAGACAUAGAGTT against Ass,inactive: 0.391
4,GGGCUUUGAUCGACGGAUUTT against 4933402J24Rik,inactive: 0.946
5,GGAAGUUGGAAAGAACCUATT against Bcl2a1c,inactive: -0.0432
6,GGACCUGAAUAAGACUAUUTT against Lgmn,inactive: 0.124
7,GCAGCUAGGUAAUAGGAAUTT against Nsg2,inactive: 1.1
8,GGUCGAUGCUUCGAAACCATT against 6820408C15Rik,inactive: -0.625
9,GGAACUGUGGAAGGAAUUCTT against Tbx6,inactive: -0.974
10,GGCCUAGCAAGGGAUUUUATT against 2410030J07Rik,inactive: 1.92
11,GGCAACAGAGCUGACCCUATT against F630111L10Rik,inactive: -2.72
12,GGACACUCAGAAGAAAACCTT against 6820443O06Rik,inactive: 0.321
13,CCACAUCUUUGACGAGUACTT against Rgs16,inactive: -1.51
14,CGAUCCGAAUGGGUCGACUTT against Bola1,inactive: 0.346
15,GCAUAUAAUGUCUAACUCGTT against Eml4,inactive: 0.136
16,GAUCUAUCACCGGUACUGCTT against Gys1,inactive: 1.63
17,GCCGGUCUAACUUUCCAAUTT against Ssbp3,inactive: -0.948
18,GCAAUUCUGCAAGUGAUUATT against Spata5l1,inactive: 0.0556
19,CGCCUACAGCUCUAUCUUATT against 2700062C07Rik,inactive: 1.03
20,GGAUACAUACUGGACAAAATT against 6720457D02Rik,inactive: -0.163
21,GGAAAAUGAGAGAUUACGATT against D530005L17Rik,inactive: 1.01
22,GGGUGCCUACUUGAUCCUUTT against Brp16,inactive: 2.4
23,GAAUUCCAGCUUUUCCCUUTT against Klra22,inactive: -0.76
24,GGUCCAGAUUGCUUAGAUGTT against 2310061J03Rik,inactive: 0.683
25,GGAUGAAAAGCUUAUUCGUTT against Ddx5,inactive: -2.31
26,GCUUUAGUCAUUUGAACAUTT against Rap2c,inactive: 0.274

row,Sequence,z-score
1,GGAAGAUUUCGAUAAGCUCTT against Cacna1h,inactive: 0.147
2,CCACUGAUCCUUUGACAGCTT against Zfy2,inactive: -0.349
3,GGAGCUGUUUGACCAAAUCTT against Epb4.1l5,inactive: -0.875
4,GCUAACUUGCUCAUGCAAATT against 2310001N14Rik,inactive: 0.568
5,CCAUUUACCUCAUAGGACCTT against Crb3,inactive: -1.45
6,GGCGGAGUUCUCAAGACUUTT against BC036718,inactive: -0.842
7,GGAUGAGCAGAUGCUCCAATT against Mtmr7,inactive: -0.619
8,GGAAGAAAAUCUUGAAGCATT against Ddx51,inactive: -1.54
9,GGCCCUUCCCAAAGUAUUATT against Mup3,inactive: 0.32
10,GGAUUAGCUGCAUGAAAGATT against 4930542N07Rik,inactive: -1.03
11,GGUCAUUCUGGCAUUAAUGTT against Clecsf13,inactive: 0.83
12,GGUGGAGCUGCUCAAGAUUTT against Fkbp2,inactive: -1.61
13,GGAUGUACGGAAGCGAUUCTT against Gmpr2,inactive: 0.0645
14,CCUUCUAGCCAAGACUGGATT against A330090H18,inactive: -1.23
15,GCAACAUUCGAGCUGGAAATT against AL033314,inactive: 2.14
16,GGUUACCUGUGAAAAUAGUTT against Zfp606,inactive: 0.368
17,GGGAAAUAAUGAUUGGUCUTT against D130064H19Rik,inactive: 2.21
18,GCAACUCGUACAAAAGGCGTT against Cnga1,inactive: 0.114
19,GCUAAUAGCCUGCCUAAGGTT against Plekhj1,inactive: -2.43
20,GGAAUAUUGUGCAUCAAAGTT against 4432409M07Rik,inactive: -0.094
21,GGUGGUUCAGUUCAAUCGUTT against Map2k1ip1,inactive: -0.16
22,GGAACUAUUGAGUUGUUGUTT against Pcdha5,inactive: 0.538
23,GGUGGUGUCUUCUGUGCAATT against Cd3d,inactive: -1.11
24,GGAAAUCAGUGAACAUCUUTT against Tshr,inactive: 0.237
25,GGCUUGGUGUUUUGAUUAGTT against Lzf,inactive: 0.228
26,GCGGAGAUCCUACAAUGUUTT against Gpatc2,inactive: -1.21

row,Sequence,z-score
1,GCAGUGUGAUAAAAGAGGATT against F830020C16Rik,inactive: 0.644
2,CGGAUUCCUAAAAGUUAUATT against Appbp1,inactive: -0.151
3,GAAUGCGAAGCCUUCCGCATT against Gfra4,inactive: 0.661
4,GGAAAAGCAUUUUCAACGUTT against Lhfpl2,inactive: 0.497
5,GCACCGGGAUUUGGUGCAATT against Rbm21,inactive: -0.0364
6,GGAAAAAUUGAAGUUGAUCTT against D230050A05,inactive: 1.45
7,GGUGACUAUUAGAAGUAAATT against Gtf3c4,inactive: -1.04
8,CCUAAACCCAUUCCAGUCUTT against Dpm3,inactive: -1.18
9,GAUAUUGCUCUCCAAUCUATT against 2310034C09Rik,inactive: -0.614
10,GGCAAGGACUCGAAGACUATT against 9630028B13Rik,inactive: -0.811
11,GGGCAGUUCUCUUUGCCAATT against Gns,inactive: 1.04
12,CCAUUAAUAAAGCGUGGGUTT against Cacybp,inactive: 0.395
13,GUUCAUUUGUCAUCACUGUTT against Prss2,inactive: 0.38
14,GGAAUAUUUGCUUCGACAGTT against AI839550,inactive: 1.38
15,GGACAUUGUCACAUCAUUCTT against Slc2a6,inactive: -0.581
16,GGCAAUGUUUACAAGUUCCTT against Ralgps1,inactive: -0.546
17,GGCAUCAAGCACAAGAAAATT against 2610042O14Rik,inactive: -0.00446
18,CCCACCAGUAAGGAGUUCATT against Dido1,inactive: 0.964
19,GGUUGGCUUGGAAAUGGGATT against Nanos2,inactive: 0.0901
20,GCACUAUCCAGGAGCAUUUTT against AI313915,inactive: -0.571
21,GGAGGAAGUCGUCUUUGGATT against Olfr1377,inactive: -0.0553
22,GCCUCUUGAUGUUAAAGUATT against Krt2-17,inactive: -1.25
23,GGACUGUCCAAAAGAAAGGTT against Tnfrsf18,inactive: -1.21
24,GGAAAACCAUGACAUCAUATT against Man2a2,inactive: 1.1
25,CGCAGUUCAUCGCAUGAUUTT against Arhgef12,inactive: 1.15
26,GCAACAAGUCUGGAGACAATT against Pbp,inactive: 0.031

# Quoted from the listing:
# Value of GGAAAAUGAGAGAUUACGATT against D530005L17Rik under z-score: inactive: 1.01
# Value of GGAAAUCAGUGAACAUCUUTT against Tshr under z-score: inactive: 0.237
# Value of GGGCUUUGAUCGACGGAUUTT against 4933402J24Rik under z-score: inactive: 0.946
# Value of GCCUCUUGAUGUUAAAGUATT against Krt2-17 under z-score: inactive: -1.25
# Value of GUUCAUUUGUCAUCACUGUTT against Prss2 under z-score: inactive: 0.38
# Value of GGAUGAAAAGCUUAUUCGUTT against Ddx5 under z-score: inactive: -2.31
# Value of CGGAUUCCUAAAAGUUAUATT against Appbp1 under z-score: inactive: -0.151

# Remaining list, next part.

row,Sequence,z-score
1,GGAUUUAACAACGAGAGAATT against Rasgrf2,inactive: 0.346
2,GCACAAGAUGUUCACACUATT against Siva,inactive: -1.49
3,GGUCAACGUGAAGACUUCCTT against Ly6a,inactive: -1.02
4,GGAAAUUUGCCGGCCAAAUTT against BC030396,inactive: -1.11
5,GGUAGCAUGCUUUUGGUGCTT against 1300004G08Rik,inactive: 1.2
6,GGCAAGUCUGUGUGCAGAUTT against Olfr267,inactive: -2.91
7,GCAGCCGCUUUAAUUAAAATT against Apaf1,inactive: 0.843
8,GGAAAAUCUCUUGGGACGATT against Myo6,inactive: 1.56
9,CCAGACCUACAAUGAGAUGTT against Gga1,inactive: -0.219
10,GGAUUUGUGCAGGAAUGCCTT against Slc6a18,inactive: -0.366
11,CCAGAUGCUGACUUGAACATT against Dpep1,inactive: 0.625
12,GCAUCACAGAAACUGAGCATT against Pou6f2,inactive: 0.867
13,GGUCUAGGAAACCUUCAGCTT against Map17,inactive: 0.302
14,GGCAGUAAUCAACAAAUAGTT against Lrrtm4,inactive: -1.49
15,GGGCCUUCUUCCUAAAUUUTT against Mat2a,inactive: 0.0628
16,CCACUCCAACUAGUGUUAATT against Pcdha10,inactive: 0.294
17,GGUUUAUGAGCUCUACGCCTT against 5730466P16Rik,inactive: -0.323
18,CCACACUAACUUGUAAUUUTT against Rasgrp1,inactive: -0.422
19,GGAAAAAAGAGAGGUCAGATT against Meox1,inactive: -0.177
20,GCUAGAAGCUCUUCAGAAATT against Zcwcc1,inactive: -1.31
21,GGUGCUUCACAGAAUGUGUTT against Olfr784,inactive: -0.446
22,GUAAGGUCACCGGGUUGCATT against Lor,inactive: -0.57
23,GCUAUAUCAGCAGAAUGGCTT against Spag4l,inactive: 0.176
24,GCAAAAGGUUAAACUGAUATT against Fbxl14,inactive: -0.302
25,GCUAUCCUCAAAAUUCCUUTT against Olfr412,inactive: -0.325
26,GGUUCUACCUUUCAUGAGUTT against LOC432615,inactive: 0.283
